This is one part of the list.

Chains of the proteins cited; added tags and fusions are not shown.
UniProt Q0JBA9, entry or part of it: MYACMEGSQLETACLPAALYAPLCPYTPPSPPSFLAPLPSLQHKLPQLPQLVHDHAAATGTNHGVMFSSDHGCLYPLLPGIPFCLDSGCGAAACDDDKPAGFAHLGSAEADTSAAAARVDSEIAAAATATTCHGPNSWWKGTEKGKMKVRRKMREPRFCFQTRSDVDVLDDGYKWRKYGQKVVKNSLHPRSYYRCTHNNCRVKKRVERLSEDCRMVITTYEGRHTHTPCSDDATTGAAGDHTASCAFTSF

In this assay the target is OsWRKY34 (Oryza sativa, UniProt Q0JBA9 1-250). Put plainly: protein-binding microarray (RPBM); PBS, 2% BSA, 51.3 ng/ul salmon testes DNA, 50 uM zinc acetate, 200 nM TF, 25 C, 1 h; high values mean tight binding. The note with it: protein: recombinant; tags: N-terminal polyhistidine and DsRed monomer fusion (pET32a); label: CyDye5-dUTP incorporated in the synthesized complementary strand; 3' TTTTT single-stranded linker to array surface; dsDNA, one strand shown. In short, it runs like this:
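Binding signal here means per-feature fluorescence intensity in arbitrary units. The values were read on an Axon 4000B scanner after a custom Agilent array, double-stranded by primer extension with Cy5-dUTP, was incubated with 200 nM protein at 25 °C for 1 h in PBS with 2% BSA, salmon testes DNA and 50 µM zinc acetate, then washed. The proteins were transcription factors with an N-terminal polyhistidine tag and DsRed, expressed in E. coli BL21-CodonPlus and purified on Ni–NTA.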
As for “CTCCTCGCCAAGGTCTCCATCGCCTGCTTCTCATGAGCCACGGAGTCACCTAGTGCAG”, the binding signal was 8450 fluorescence intensity (a.u.).

“CGCCTTCGCCTCCGGCCCCTTATATGGCGTGGCGGGGAGGCGGAGTCACCTAGTGCAG”: the binding signal is 8930 fluorescence intensity (a.u.).

For “AGCATTTAGGTGAAAATATCACCATATACTATCTCCATCTCGGAGTCACCTAGTGCAG”, the binding signal was 8380 fluorescence intensity (a.u.).

With “CGAGGATATTAATAATCTTCCAGTTCTCCATTTTTATACCCGGAGTCACCTAGTGCAG”, the binding signal was 8170 fluorescence intensity (a.u.).

As for “TACCGTCTCACACGCTGCTCATCATGTTTTTTATACTTTACGGAGTCACCTAGTGCAG”, the binding signal was 11500 fluorescence intensity (a.u.).

Turning to “CGGTTTCGTGTTCCCGCGGCTCTATAATTTGGACCTCATGCGGAGTCACCTAGTGCAG”, the binding signal was 9900 fluorescence intensity (a.u.).

Take “CATCGTGGGATCCACTACTCCGCTACTCCTATCCTATCACCGGAGTCACCTAGTGCAG”: the binding signal is 8990 fluorescence intensity (a.u.).

For “CTCCTCGTATCTTTGTCGGCTGCCAGGCCCTCCGACTTTACGGAGTCACCTAGTGCAG”, the binding signal is 10800 fluorescence intensity (a.u.).

Regarding “TTTGTCCGTGGAGGCAAGCTTATGTTCTCATCTATAAATTCGGAGTCACCTAGTGCAG”, the binding signal is 9760 fluorescence intensity (a.u.).

Consider “CTGCCGATTTCGCCGGCTCGATCCCCACCCCGACCCCGCTCGGAGTCACCTAGTGCAG”, for which the binding signal was 8390 fluorescence intensity (a.u.).

Consider “CGAGAGACTACCGTTATCGTTCTTCAATCTGCTGGATTCACGGAGTCACCTAGTGCAG”, for which the binding signal is 8750 fluorescence intensity (a.u.).

Take “TAATTTTTTGTGTAGCTGACATATGGGTCCCATTATTTTTCGGAGTCACCTAGTGCAG”: the binding signal is 10100 fluorescence intensity (a.u.).

Turning to “CCTCTCACTGCTAGTGCCCCACACCGTTCTTCGCTGCCCACGGAGTCACCTAGTGCAG”, the binding signal was 11800 fluorescence intensity (a.u.).

As for “CAGTTTTTCGATGAAATTTCATACGCAATTATTGGTTCAACGGAGTCACCTAGTGCAG”, the binding signal was 8040 fluorescence intensity (a.u.).

Take “CTCTTATTGTCCCTATCATGACTAAATTGGTTTCCGGCTCCGGAGTCACCTAGTGCAG”: the binding signal is 8220 fluorescence intensity (a.u.).

With “CCACACTCCTCGCTCGCCTGCCTCTCTGTTCTTAATTAGCCGGAGTCACCTAGTGCAG”, the binding signal is 8750 fluorescence intensity (a.u.).

Turning to “CCCACTCACCAGTCACCACCCAAGTGCACCACCCCTTTTTCGGAGTCACCTAGTGCAG”, the binding signal was 9130 fluorescence intensity (a.u.).

“CCTGCTGCTTCATATGTTCTGCTCTGAACATGGACTGCGCCGGAGTCACCTAGTGCAG”: the binding signal was 8320 fluorescence intensity (a.u.).

Consider “AGGCGTGTCCCGTGTCCGTCCGTGGAGAGGGGAGGGGAGGCGGAGTCACCTAGTGCAG”, for which the binding signal is 10700 fluorescence intensity (a.u.).

As to “CAATTATTACAGGCGGCCAGCGCCTCATGGCTTTTACCTTCGGAGTCACCTAGTGCAG”, the binding signal is 8660 fluorescence intensity (a.u.).

Take “TCCAATTTGGATGGGGTTATTATTTTGTTTGCTCTCTCAACGGAGTCACCTAGTGCAG”: the binding signal was 9990 fluorescence intensity (a.u.).

“CGTTGGTCGGGGAGAGTCAAGAGTTGGGGATATATACATGCGGAGTCACCTAGTGCAG”: the binding signal was 9360 fluorescence intensity (a.u.).

In the case of “TTCTTCCCCACTTCACCCGCAAGTTTGCTTAAGCCTGTTCCGGAGTCACCTAGTGCAG”, the binding signal was 9310 fluorescence intensity (a.u.).

As to “AGCTCCTTGACAGCACTGCATCTTTTATCATACACTTACACGGAGTCACCTAGTGCAG”, the binding signal was 9610 fluorescence intensity (a.u.).

Regarding “TCTCTTGCCATTGCAAGCCTTACACGTGACCCTGCGCATGCGGAGTCACCTAGTGCAG”, the binding signal was 8780 fluorescence intensity (a.u.).

Take “GACTTTATATGTGACTTTTTTTTTAACTTTTTCATAATTTCGGAGTCACCTAGTGCAG”: the binding signal was 9730 fluorescence intensity (a.u.).

For “GTCGAGGAGGAGGCGGTGGTGGTGGTGGTGGCGCGGCCGCCGGAGTCACCTAGTGCAG”, the binding signal was 10400 fluorescence intensity (a.u.).

In the case of “ATCTAGACCATTATTCTTTTAGTAATTTCAAATTTGTATTCGGAGTCACCTAGTGCAG”, the binding signal was 8500 fluorescence intensity (a.u.).

For the sequence “GTTGACTATGACAACAGTCGCGACCGACTATTAAGATCCTCGGAGTCACCTAGTGCAG”, the binding signal was 8520 fluorescence intensity (a.u.).

“TAGTAATCCAGGTATTTTAGTCATTTTGCAGCATCACTCACGGAGTCACCTAGTGCAG”: the binding signal was 8510 fluorescence intensity (a.u.).

Regarding “AATTTTGATTAATCTCGTATTGGGTTCTTATATGGAAACTCGGAGTCACCTAGTGCAG”, the binding signal was 8486 ± 37.5 fluorescence intensity (a.u.).

On to “GATTAGGTTTTTCGATTCTCTTTGTAACCCTATCCCCTACCGGAGTCACCTAGTGCAG”, for which the binding signal was 8520 fluorescence intensity (a.u.).

In the case of “AGCCACCAGCCGTGCCGCGCCTCCGTGCCTCTCCGTGCCGCGGAGTCACCTAGTGCAG”, the binding signal was 8460 fluorescence intensity (a.u.).

As to “CAGCTCAACCATTTCTTCAGTGTATTCTAGAGCTAATTTTCGGAGTCACCTAGTGCAG”, the binding signal was 9930 fluorescence intensity (a.u.).

For the sequence “TCTCCTCGCGCGAGTTCGCCCGCCGCCTGCGCCGATCTCCCGGAGTCACCTAGTGCAG”, the binding signal was 9460 fluorescence intensity (a.u.).

As to “GTGGCCAACCAACTTTCACGCTCTTTTTTCATTACTTTCTCGGAGTCACCTAGTGCAG”, the binding signal is 12800 fluorescence intensity (a.u.).

Take “AGGACAGTACTACAGACATAGTTAATGACAGCATACCCATCGGAGTCACCTAGTGCAG”: the binding signal is 9080 fluorescence intensity (a.u.).

In the case of “AGTGGGCTGGGATGCTTGTGTTGTGTCTTCTGCTTCCTGGCGGAGTCACCTAGTGCAG”, the binding signal was 9770 fluorescence intensity (a.u.).

In the case of “GTTCACCGAGTAGTTATTCTGCATTCATTCAACCAACACACGGAGTCACCTAGTGCAG”, the binding signal was 11600 fluorescence intensity (a.u.).

On to “TAATGGAAAAAATTGTTTAAAAAAGGTCAAATAGTAAAAACGGAGTCACCTAGTGCAG”, for which the binding signal is 58800 fluorescence intensity (a.u.).

For the sequence “AAAAGTTGGGTGGCTATTTTCGTGTGCAGGTGACTTAATACGGAGTCACCTAGTGCAG”, the binding signal was 8520 fluorescence intensity (a.u.).

With “ATCGCCACCTCTTTTGTTGCCAAAACAAAGCTTTTGCCCACGGAGTCACCTAGTGCAG”, the binding signal was 8160 fluorescence intensity (a.u.).

Regarding “GGCCGGGGAGGGAGGGGCGCCGTCGTCCTGCTGCATCCTGCGGAGTCACCTAGTGCAG”, the binding signal was 20700 fluorescence intensity (a.u.).

As to “ACCTCCATTCTCTTAGCTCTGATGTATTCTGCTTTTTCATCGGAGTCACCTAGTGCAG”, the binding signal is 8120 fluorescence intensity (a.u.).

As for “TTCTTTAATTTGCAAAAAATATGTTTGTGAATTCTCACTCCGGAGTCACCTAGTGCAG”, the binding signal was 8300 fluorescence intensity (a.u.).

As for “TCATCCTGCTGCTGCTCCTCCTGACTTCTCCTTGCGCCGTCGGAGTCACCTAGTGCAG”, the binding signal was 8310 fluorescence intensity (a.u.).

Consider “ACAACTAAATCCCGTCTGCAATTGCTTTTCTTCACAATTACGGAGTCACCTAGTGCAG”, for which the binding signal is 10800 fluorescence intensity (a.u.).

On to “CCTGCCCGCCGATCGGCCATCCCCTTGGATCTCGCAGCTTCGGAGTCACCTAGTGCAG”, for which the binding signal was 8730 fluorescence intensity (a.u.).

As to “TATCATCAACAATGTTATTGTTCAGTTCATTTCATTTTCACGGAGTCACCTAGTGCAG”, the binding signal is 8770 fluorescence intensity (a.u.).

Take “GCCGCCTCGTTCGCCTCCGGGTTCCCCTTGTACCCGCTCGCGGAGTCACCTAGTGCAG”: the binding signal was 8820 fluorescence intensity (a.u.).

“CTGCGGCCCGGCGGGAGTGGGAGGGGCGGCGGGCCGGACCCGGAGTCACCTAGTGCAG”: the binding signal was 9720 fluorescence intensity (a.u.).

On to “ACGACCCTCTACATGTTGCTGCTGGCAGCCGCTCCCTCTCCGGAGTCACCTAGTGCAG”, for which the binding signal is 8660 fluorescence intensity (a.u.).

Take “GCCTTGTCTATTGCCTCAGAAGTTGGTTACCCTGTTGTTGCGGAGTCACCTAGTGCAG”: the binding signal was 8150 fluorescence intensity (a.u.).

Take “ACACCGCCCGCTGCACACCGGCCATCTCCACCACGAACTCCGGAGTCACCTAGTGCAG”: the binding signal was 9520 fluorescence intensity (a.u.).

The values are drawn from paper PMC7819943, “Rice protein-binding microarrays: a tool to detect cis-acting elements near promoter regions in rice”.
